Reference: the supplement of paper PMC10849652
Some of the results follow.

Sequences of proteins named here, by UniProt entry; tags and fusion partners are left off. A change or cut given only in a name is not applied to a line headed by its entry.
UniProt Q15276: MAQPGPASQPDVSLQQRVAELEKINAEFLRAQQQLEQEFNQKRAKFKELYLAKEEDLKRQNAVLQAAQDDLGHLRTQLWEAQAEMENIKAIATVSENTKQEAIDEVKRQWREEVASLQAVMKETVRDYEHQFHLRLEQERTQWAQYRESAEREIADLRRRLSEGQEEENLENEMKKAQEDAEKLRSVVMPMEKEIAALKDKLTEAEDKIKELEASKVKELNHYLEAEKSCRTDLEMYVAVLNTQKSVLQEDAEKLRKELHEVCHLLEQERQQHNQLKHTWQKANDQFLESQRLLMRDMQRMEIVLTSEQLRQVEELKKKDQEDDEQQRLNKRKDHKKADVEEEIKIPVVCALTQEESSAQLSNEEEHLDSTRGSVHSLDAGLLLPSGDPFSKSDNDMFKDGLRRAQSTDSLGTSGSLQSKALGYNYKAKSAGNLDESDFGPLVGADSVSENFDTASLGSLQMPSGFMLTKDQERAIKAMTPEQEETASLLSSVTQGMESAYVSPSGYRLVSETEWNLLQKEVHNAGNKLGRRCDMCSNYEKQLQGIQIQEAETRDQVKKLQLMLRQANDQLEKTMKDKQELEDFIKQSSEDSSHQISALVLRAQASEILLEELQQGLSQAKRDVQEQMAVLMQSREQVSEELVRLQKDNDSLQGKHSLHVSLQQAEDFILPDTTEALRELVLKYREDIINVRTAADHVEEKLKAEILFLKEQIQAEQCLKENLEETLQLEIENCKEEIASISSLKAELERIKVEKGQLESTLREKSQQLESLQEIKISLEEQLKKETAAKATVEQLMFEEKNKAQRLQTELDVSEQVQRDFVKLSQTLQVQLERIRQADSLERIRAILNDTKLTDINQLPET
UniProt P47224: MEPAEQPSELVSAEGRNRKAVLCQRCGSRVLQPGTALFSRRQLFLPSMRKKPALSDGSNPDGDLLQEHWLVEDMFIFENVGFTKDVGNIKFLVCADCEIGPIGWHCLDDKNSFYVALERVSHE
UniProt Q7Z6M1: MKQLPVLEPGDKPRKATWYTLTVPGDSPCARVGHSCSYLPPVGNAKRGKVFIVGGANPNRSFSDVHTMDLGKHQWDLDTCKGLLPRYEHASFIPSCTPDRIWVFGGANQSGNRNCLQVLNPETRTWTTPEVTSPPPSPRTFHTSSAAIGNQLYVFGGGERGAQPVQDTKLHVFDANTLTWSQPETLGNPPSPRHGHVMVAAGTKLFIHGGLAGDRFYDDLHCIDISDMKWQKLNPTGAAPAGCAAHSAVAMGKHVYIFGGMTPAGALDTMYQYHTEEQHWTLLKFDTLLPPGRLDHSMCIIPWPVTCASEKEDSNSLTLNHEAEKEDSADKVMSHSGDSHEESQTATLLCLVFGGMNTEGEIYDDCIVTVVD
UniProt Q9UKM9: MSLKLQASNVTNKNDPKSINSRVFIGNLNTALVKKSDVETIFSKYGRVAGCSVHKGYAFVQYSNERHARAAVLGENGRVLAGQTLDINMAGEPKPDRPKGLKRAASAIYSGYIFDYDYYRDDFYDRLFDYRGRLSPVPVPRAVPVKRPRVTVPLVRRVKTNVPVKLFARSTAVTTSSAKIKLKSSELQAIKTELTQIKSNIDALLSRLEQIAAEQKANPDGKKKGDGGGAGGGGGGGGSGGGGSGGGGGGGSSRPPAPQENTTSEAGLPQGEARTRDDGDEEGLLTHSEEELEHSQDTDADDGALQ
UniProt Q86YS6: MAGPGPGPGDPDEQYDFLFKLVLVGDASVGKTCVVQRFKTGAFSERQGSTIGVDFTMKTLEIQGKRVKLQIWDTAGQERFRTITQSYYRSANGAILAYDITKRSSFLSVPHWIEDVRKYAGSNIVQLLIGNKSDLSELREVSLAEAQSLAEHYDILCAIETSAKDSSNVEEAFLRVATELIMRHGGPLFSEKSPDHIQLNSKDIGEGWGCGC
UniProt Q9P0K7: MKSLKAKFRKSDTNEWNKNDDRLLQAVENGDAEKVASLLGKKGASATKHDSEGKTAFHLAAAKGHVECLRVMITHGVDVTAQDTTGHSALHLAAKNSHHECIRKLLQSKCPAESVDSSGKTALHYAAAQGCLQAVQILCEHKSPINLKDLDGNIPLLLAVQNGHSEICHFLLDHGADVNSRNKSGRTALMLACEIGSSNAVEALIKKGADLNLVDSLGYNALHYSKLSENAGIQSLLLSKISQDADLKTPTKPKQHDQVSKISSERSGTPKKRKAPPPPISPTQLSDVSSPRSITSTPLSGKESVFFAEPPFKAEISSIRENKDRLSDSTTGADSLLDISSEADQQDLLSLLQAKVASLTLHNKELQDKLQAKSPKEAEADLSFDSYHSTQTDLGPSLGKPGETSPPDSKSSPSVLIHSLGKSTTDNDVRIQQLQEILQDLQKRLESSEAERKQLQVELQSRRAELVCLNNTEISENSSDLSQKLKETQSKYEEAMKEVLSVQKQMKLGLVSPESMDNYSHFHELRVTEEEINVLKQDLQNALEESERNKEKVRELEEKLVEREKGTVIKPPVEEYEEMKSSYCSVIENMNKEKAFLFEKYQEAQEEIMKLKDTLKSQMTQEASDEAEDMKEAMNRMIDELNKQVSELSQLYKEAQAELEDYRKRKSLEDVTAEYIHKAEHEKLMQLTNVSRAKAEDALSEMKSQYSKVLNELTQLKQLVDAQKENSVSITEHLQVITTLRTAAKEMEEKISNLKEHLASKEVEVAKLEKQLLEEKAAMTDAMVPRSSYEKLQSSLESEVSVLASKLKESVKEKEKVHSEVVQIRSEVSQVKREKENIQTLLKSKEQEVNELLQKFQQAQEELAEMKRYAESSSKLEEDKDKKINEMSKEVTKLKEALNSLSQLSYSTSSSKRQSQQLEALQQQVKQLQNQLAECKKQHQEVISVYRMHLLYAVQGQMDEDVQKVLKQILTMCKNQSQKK
UniProt P20339: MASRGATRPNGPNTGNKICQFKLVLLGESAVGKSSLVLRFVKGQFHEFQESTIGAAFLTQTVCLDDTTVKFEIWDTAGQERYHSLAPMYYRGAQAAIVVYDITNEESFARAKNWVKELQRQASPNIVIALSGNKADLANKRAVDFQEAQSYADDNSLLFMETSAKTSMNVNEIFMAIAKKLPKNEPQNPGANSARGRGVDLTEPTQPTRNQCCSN
UniProt P54136: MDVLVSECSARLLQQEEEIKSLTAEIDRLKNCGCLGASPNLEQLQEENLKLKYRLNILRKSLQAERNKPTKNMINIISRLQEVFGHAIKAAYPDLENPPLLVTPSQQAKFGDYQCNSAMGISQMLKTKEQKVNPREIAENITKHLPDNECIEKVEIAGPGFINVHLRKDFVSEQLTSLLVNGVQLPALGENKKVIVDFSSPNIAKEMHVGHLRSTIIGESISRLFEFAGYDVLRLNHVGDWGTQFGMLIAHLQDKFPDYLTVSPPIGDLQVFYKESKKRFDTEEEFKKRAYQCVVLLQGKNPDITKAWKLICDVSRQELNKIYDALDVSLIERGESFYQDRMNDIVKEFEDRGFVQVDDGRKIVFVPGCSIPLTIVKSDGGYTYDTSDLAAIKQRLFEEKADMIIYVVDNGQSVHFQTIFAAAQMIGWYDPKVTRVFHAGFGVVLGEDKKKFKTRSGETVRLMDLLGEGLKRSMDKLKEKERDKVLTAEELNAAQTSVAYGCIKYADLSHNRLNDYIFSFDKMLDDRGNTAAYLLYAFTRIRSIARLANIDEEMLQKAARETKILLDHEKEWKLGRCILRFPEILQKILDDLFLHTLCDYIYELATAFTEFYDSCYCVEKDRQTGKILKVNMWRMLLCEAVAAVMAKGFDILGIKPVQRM
UniProt Q96QF0: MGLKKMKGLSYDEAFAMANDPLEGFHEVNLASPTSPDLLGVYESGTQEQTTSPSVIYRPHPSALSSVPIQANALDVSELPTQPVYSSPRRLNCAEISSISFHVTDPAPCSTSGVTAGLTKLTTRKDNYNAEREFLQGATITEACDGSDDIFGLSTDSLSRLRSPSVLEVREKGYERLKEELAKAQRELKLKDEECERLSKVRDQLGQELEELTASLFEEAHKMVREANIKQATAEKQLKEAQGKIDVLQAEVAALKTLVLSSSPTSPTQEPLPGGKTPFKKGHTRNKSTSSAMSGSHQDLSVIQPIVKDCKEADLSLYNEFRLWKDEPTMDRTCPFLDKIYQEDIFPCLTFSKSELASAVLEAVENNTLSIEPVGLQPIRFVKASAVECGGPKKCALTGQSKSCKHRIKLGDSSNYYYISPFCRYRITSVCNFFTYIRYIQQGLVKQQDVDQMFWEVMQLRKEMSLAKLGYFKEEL
UniProt Q96B01: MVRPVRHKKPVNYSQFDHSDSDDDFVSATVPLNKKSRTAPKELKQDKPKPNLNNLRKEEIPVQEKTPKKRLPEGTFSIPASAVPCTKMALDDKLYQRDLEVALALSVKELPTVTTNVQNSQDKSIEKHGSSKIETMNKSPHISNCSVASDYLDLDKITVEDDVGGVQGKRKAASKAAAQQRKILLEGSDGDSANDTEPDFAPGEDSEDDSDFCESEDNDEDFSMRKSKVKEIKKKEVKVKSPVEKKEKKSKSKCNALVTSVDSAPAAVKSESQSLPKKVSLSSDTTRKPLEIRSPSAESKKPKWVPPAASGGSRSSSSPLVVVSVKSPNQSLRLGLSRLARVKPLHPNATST
UniProt Q9H2M9: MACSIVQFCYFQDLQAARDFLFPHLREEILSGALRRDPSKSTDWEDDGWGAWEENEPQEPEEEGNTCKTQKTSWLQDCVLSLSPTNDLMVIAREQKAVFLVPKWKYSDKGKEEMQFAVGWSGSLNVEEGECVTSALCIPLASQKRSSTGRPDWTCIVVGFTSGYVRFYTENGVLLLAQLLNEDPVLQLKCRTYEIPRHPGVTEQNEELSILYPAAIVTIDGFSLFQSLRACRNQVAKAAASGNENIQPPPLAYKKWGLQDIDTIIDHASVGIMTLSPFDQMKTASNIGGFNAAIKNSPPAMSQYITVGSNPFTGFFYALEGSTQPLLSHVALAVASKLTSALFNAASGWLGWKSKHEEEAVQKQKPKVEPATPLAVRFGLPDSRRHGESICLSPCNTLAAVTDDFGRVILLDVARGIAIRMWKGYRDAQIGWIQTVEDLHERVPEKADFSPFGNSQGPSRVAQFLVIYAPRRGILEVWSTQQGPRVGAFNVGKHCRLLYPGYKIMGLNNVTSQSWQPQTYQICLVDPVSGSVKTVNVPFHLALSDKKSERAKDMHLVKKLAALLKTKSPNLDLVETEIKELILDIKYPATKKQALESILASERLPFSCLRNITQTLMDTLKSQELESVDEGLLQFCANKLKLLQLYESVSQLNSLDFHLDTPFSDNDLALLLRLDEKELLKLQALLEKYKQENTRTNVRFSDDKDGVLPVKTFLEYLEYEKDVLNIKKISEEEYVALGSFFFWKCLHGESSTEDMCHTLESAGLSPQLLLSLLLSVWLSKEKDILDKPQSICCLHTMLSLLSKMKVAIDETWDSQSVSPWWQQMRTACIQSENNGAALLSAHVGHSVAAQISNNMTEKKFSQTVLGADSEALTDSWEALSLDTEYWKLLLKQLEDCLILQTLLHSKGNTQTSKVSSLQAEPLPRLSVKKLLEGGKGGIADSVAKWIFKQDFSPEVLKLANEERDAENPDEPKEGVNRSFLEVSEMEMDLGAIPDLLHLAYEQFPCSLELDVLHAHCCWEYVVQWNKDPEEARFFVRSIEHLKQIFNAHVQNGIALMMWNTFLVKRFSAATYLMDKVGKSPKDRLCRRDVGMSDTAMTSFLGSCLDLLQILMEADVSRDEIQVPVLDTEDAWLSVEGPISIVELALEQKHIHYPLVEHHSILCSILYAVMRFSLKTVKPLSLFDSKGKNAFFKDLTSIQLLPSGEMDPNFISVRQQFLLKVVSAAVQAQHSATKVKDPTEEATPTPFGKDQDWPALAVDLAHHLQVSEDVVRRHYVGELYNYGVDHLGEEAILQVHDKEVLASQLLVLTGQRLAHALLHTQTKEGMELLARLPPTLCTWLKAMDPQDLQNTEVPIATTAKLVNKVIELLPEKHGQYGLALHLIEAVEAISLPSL
UniProt P52306: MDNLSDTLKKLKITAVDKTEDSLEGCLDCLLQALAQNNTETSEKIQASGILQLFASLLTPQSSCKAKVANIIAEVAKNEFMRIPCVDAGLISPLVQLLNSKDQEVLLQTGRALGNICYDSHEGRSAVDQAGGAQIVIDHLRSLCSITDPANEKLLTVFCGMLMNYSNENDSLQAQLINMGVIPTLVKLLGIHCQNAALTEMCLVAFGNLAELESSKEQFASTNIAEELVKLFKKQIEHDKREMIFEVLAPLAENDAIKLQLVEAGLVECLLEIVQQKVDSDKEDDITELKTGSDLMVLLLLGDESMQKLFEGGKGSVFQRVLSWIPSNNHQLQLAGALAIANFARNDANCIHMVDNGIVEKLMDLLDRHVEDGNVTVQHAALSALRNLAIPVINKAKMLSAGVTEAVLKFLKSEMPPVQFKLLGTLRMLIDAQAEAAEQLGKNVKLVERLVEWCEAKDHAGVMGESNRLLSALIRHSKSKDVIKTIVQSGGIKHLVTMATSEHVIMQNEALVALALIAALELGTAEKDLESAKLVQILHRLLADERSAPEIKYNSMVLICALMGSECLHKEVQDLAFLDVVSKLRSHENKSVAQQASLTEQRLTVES

Tests used:
Experiment in all cases: log2 fold change, soluble protein after heating vs DMSO (PISA); higher = thermal stabilisation; K562 cells, 10 uM, 30 min; active = over 0.2 and 3.5 SD of the protein, either way, in both replicates (recomputed)
[1] = compound: Cc1ccc(NC(=O)c2ccc(CN3CC[C@H](N(C)C)C3)c(C(F)(F)F)c2)cc1Nc1nccc(-c2cncnc2)n1 [bafetinib]
Procedure, shortened: (§1)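 K562 cells at 2×10^6 cells/mL were treated with 10 μM compound for 30 min. Aliquots were heated for 3 min across 48°C-58°C, pooled, and extracted in PBS with 0.5% NP-40 at 4°C; soluble protein was the supernatant after 21,000xg for 90 min. Soluble protein was quantified by TMTpro 16plex LC-MS/MS with channel sums equalised, and reported as log2 fold change in thermal stability against DMSO controls, with values from duplicates.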

[2] = compound: Cc1cccc(CC(=O)N2CCc3c2ccc(-c2cn(C)c4ncnc(N)c24)c3F)n1
Procedure, shortened: as §1

[3] = compound: Cc1cn(-c2cc(NC(=O)c3ccc(C)c(Nc4nccc(-c5cccnc5)n4)c3)cc(C(F)(F)F)c2)cn1 [nilotinib]
Procedure, shortened: as §1

[4] = compound: Cc1nc(Nc2n[nH]c3c2CN(C(=O)N[C@H](CN(C)C)c2ccccc2)C3(C)C)c2sccc2n1
Procedure, shortened: as §1

[5] = compound: Cc1nc(Nc2ncc(C(=O)Nc3c(C)cccc3Cl)s2)cc(N2CCN(CCO)CC2)n1 [dasatinib]
Procedure, shortened: as §1

[6] = compound: Cc1ncc(-c2ccnc(Nc3ccc(S(C)(=O)=O)cc3)n2)n1C(C)C
Procedure, shortened: as §1

[7] = compound: Cn1cc(-c2ccc3c(c2)CCN3C(=O)Cc2cccc(C(F)(F)F)c2)c2c(N)ncnc21
Procedure, shortened: as §1

[8] = compound: Cn1cc(-c2ccc3nnc(C(F)(F)c4ccc5ncccc5c4)n3n2)cn1
Procedure, shortened: as §1

[9] = compound: Cn1cncc1[C@@](N)(c1ccc(Cl)cc1)c1ccc2c(c1)c(-c1cccc(Cl)c1)cc(=O)n2C [tipifarnib]
Procedure, shortened: as §1

[10] = compound: FC(F)(F)c1ccc(/C=C/c2nc(COc3ccc(CCCCn4ccnn4)cc3)co2)cc1 [mubritinib]
Procedure, shortened: as §1

Measured: log2 fold change

RAD23A (UniProt P54725)
inactive: [1] -0.061 | [2] -0.111 | [3] -0.029 | [4] 0.014 | [5] 0.042 | [6] 0.012 | [7] 0.104 | [8] 0.004 | [9] 0.021 | [10] 0.027

RABEP1 (UniProt Q15276)
inactive: [1] -0.097 | [2] -0.028 | [3] 0.004 | [4] -0.015 | [5] 0.003 | [6] 0.025 | [7] 0.026 | [8] 0.017 | [9] -0.042 | [10] 0.049

RAB19 isoform 2 (UniProt A4D1S5)
inactive: [1] -0.119

RABIF (UniProt P47224)
inactive: [1] -0.061 | [2] 0.048 | [3] 0.018 | [4] -0.091 | [5] 0.038 | [6] 0.045 | [7] 0.046 | [8] 0.029 | [9] -0.037 | [10] 0.016

RABEPK (UniProt Q7Z6M1)
inactive: [1] -0.01 | [2] -0.017 | [3] -0.006 | [4] 0.006 | [5] 0.057 | [6] -0.01 | [7] 0.053 | [8] -0.034 | [9] 0.005 | [10] 0

RALY (UniProt Q9UKM9)
inactive: [1] 0.077 | [2] -0.069 | [3] -0.029 | [4] 0.051 | [5] 0.249 | [6] -0.151 | [7] -0.596 | [8] -0.011 | [9] -0.118 | [10] -0.257

RAC3 (UniProt P60763)
inactive: [1] 0.015 | [2] -0.221 | [3] 0.03 | [4] 0.036 | [5] -0.169 | [6] -0.016 | [7] 0.107 | [8] 0.064 | [9] 0.03 | [10] -0.008

RANGAP1 (UniProt P46060)
inactive: [1] 0 | [2] 0.032 | [3] -0.073 | [4] -0.025 | [5] -0.088 | [6] 0.051 | [7] -0.037 | [8] -0.024 | [9] -0.079 | [10] 0.03

RAB31 (UniProt Q13636)
inactive: [1] -0.026 | [2] -0.042 | [3] 0.011 | [4] 0.019 | [5] 0.001 | [6] 0.012 | [7] 0.061 | [8] -0.01 | [9] 0.026 | [10] 0.015

RAB43 (UniProt Q86YS6)
inactive: [1] -0.02 | [2] -0.192 | [3] 0.002 | [4] 0.018 | [5] -0.006 | [6] -0.026 | [7] 0 | [8] -0.135 | [9] 0.006 | [10] -0.033

RAI14 isoform 2 (UniProt Q9P0K7)
inactive: [1] -0.09 | [2] 0.125 | [3] -0.108 | [4] -0.046 | [5] -0.063 | [6] 0.004 | [7] -0.058 | [8] 0.062 | [9] -0.061 | [10] -0.013

RAB5A (UniProt P20339)
inactive: [1] 0.007 | [2] 0.06 | [3] 0.04 | [4] -0.002 | [5] 0.09 | [6] 0.011 | [7] 0.05 | [8] 0.008 | [9] 0 | [10] -0.012

RABGAP1L isoform 3 (UniProt Q5R372)
inactive: [1] -0.045 | [2] 0.024 | [3] -0.031 | [4] -0.001 | [5] -0.038 | [6] -0.037 | [7] -0.005 | [8] 0.013 | [9] 0.016 | [10] -0.001

RBM3 (UniProt P98179)
inactive: [1] 0.178 | [2] -0.026 | [3] 0.008 | [4] 0.123 | [5] 0.118 | [6] 0.128 | [7] -0.23 | [8] -0.178 | [9] 0.12 | [10] -0.113

RARS (UniProt P54136)
inactive: [1] 0.04 | [2] 0.069 | [3] -0.057 | [4] -0.021 | [5] -0.071 | [6] 0.053 | [7] -0.08 | [8] -0.125 | [9] -0.117 | [10] -0.116

RABGAP1 (UniProt Q9Y3P9)
inactive: [1] -0.036 | [2] 0.036 | [3] -0.017 | [4] -0.056 | [5] -0.027 | [6] 0.006 | [7] -0.006 | [8] -0.003 | [9] 0.01 | [10] 0.018

RAP2A (UniProt P10114)
inactive: [1] 0.016 | [2] -0.156 | [3] 0.042 | [4] -0.005 | [5] 0.078 | [6] -0.006 | [7] 0.021 | [8] -0.004 | [9] 0.032 | [10] 0.051

RAB32 (UniProt Q13637)
inactive: [1] 0.096 | [2] 0.023 | [3] -0.088 | [4] -0.059 | [5] 0.106 | [6] -0.034 | [7] 0.07 | [8] 0.017 | [9] -0.11 | [10] 0.081

RAB3GAP1 (UniProt Q15042)
inactive: [1] 0.026 | [2] -0.051 | [3] -0.064 | [4] -0.083 | [5] -0.015 | [6] 0.03 | [7] -0.093 | [8] -0.052 | [9] -0.069 | [10] -0.077

RAB9A (UniProt P51151)
inactive: [1] -0.073 | [2] -0.021 | [3] -0.01 | [4] 0.012 | [5] 0.002 | [6] 0.002 | [7] 0.104 | [8] 0.001 | [9] 0.001 | [10] 0.002

RABGGTB (UniProt P53611)
inactive: [1] 0.028 | [2] 0.023 | [3] 0.053 | [4] -0.05 | [5] 0.063 | [6] -0.032 | [7] 0.034 | [8] -0.02 | [9] 0.074 | [10] -0.004

RAB3IP (UniProt Q96QF0)
inactive: [1] 0.06 | [2] 0.045 | [3] 0.062 | [4] -0.107 | [5] -0.012 | [6] 0.008 | [7] 0.046 | [8] -0.047 | [9] 0 | [10] -0.013

RAD51AP1 (UniProt Q96B01)
inactive: [1] -0.028 | [2] -0.004 | [3] -0.005 | [4] 0.069 | [5] 0.022 | [6] -0.113 | [7] 0.029 | [8] -0.032 | [9] 0.068 | [10] 0.039

RAN (UniProt P62826)
inactive: [1] -0.034 | [2] -0.025 | [3] 0.002 | [4] 0.01 | [5] 0.033 | [6] -0.008 | [7] -0.028 | [8] -0.022 | [9] 0.02 | [10] 0.004

RAB3GAP2 (UniProt Q9H2M9)
inactive: [1] 0.059 | [2] 0.091 | [3] -0.026 | [4] -0.088 | [5] -0.14 | [6] 0.006 | [7] -0.077 | [8] -0.029 | [9] -0.046 | [10] -0.087

RAB30 (UniProt Q15771)
inactive: [1] -0.081 | [2] 0.033 | [3] 0.039 | [4] -0.033 | [5] 0.022 | [6] -0.037 | [7] -0.151 | [8] -0.012 | [9] -0.046 | [10] 0.059

RACK1 (UniProt P63244)
inactive: [1] 0.043 | [2] -0.001 | [3] 0.009 | [4] 0.125 | [5] -0.004 | [6] -0.035 | [7] 0.024 | [8] 0.016 | [9] -0.052 | [10] 0.061

RAD9A (UniProt Q99638)
inactive: [1] -0.027 | [2] -0.076 | [3] 0.037 | [4] 0.007 | [5] 0.029 | [6] 0.011 | [7] 0.014 | [8] -0.039 | [9] -0.021 | [10] 0.012

RAP1GDS1 isoform 5 (UniProt P52306)
inactive: [1] 0.097 | [2] 0.07 | [3] -0.077 | [4] -0.105 | [5] -0.083 | [6] 0.042 | [7] -0.005 | [8] 0.03 | [9] -0.041 | [10] 0.026

RAP2B (UniProt P61225)
inactive: [1] 0.058 | [2] -0.015 | [3] 0.111 | [4] -0.026 | [5] 0.021 | [6] 0.005 | [7] 0.022 | [8] 0.018 | [9] 0.003 | [10] 0.057
